# Measured values from the supplement of paper PMC12819154, “High-throughput peptide-centric local stability assay extends protein–ligand identification to membrane proteins, tissues and bacteria” (Nature Structural & Molecular Biology, 2025).
# By UniProt entry, the sequences of proteins in these tests, tags left out. Where a name states a change or a piece, a line headed by the entry shows the natural chain unless it says otherwise.
# UniProt P08506: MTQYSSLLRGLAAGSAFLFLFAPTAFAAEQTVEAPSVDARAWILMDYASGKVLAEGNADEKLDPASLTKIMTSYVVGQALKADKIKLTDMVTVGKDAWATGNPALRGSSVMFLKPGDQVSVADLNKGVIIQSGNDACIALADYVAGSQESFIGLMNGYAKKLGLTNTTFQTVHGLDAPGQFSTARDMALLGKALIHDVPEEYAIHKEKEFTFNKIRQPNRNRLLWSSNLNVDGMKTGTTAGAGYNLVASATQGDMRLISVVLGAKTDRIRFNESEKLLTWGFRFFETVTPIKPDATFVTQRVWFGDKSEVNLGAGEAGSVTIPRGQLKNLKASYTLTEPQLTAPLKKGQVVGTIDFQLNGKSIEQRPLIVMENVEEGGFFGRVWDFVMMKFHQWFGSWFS
# UniProt P09163: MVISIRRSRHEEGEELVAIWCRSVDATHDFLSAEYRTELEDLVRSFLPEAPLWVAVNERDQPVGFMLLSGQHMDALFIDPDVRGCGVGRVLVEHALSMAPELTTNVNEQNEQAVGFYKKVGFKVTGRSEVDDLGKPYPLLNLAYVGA
# UniProt P09099: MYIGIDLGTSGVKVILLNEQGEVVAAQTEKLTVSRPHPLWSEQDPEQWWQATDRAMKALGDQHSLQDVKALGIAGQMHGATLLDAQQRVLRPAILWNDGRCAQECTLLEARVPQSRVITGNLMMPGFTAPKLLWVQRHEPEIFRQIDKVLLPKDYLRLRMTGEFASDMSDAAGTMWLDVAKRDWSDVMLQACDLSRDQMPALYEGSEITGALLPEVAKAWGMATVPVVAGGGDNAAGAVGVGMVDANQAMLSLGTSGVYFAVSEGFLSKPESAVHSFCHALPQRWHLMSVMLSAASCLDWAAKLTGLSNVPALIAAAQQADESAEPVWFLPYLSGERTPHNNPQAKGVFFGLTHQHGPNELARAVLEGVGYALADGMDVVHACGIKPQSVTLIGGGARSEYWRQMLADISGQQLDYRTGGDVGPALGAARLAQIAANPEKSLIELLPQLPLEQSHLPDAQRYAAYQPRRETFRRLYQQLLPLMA
# UniProt P07003: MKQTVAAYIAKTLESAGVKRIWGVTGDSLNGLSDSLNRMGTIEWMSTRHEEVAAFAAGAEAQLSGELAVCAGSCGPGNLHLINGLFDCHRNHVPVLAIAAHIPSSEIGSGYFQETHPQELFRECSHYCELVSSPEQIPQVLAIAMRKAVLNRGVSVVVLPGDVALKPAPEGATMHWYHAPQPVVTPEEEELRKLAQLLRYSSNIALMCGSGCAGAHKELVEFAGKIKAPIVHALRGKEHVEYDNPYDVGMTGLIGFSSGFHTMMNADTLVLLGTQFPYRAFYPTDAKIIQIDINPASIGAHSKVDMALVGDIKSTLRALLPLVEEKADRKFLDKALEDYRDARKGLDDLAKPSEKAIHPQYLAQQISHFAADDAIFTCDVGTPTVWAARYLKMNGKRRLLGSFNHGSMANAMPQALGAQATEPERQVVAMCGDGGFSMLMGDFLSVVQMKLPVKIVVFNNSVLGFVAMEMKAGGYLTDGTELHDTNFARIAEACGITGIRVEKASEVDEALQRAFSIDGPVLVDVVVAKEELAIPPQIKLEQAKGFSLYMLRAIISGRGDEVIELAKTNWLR
# UniProt P09831: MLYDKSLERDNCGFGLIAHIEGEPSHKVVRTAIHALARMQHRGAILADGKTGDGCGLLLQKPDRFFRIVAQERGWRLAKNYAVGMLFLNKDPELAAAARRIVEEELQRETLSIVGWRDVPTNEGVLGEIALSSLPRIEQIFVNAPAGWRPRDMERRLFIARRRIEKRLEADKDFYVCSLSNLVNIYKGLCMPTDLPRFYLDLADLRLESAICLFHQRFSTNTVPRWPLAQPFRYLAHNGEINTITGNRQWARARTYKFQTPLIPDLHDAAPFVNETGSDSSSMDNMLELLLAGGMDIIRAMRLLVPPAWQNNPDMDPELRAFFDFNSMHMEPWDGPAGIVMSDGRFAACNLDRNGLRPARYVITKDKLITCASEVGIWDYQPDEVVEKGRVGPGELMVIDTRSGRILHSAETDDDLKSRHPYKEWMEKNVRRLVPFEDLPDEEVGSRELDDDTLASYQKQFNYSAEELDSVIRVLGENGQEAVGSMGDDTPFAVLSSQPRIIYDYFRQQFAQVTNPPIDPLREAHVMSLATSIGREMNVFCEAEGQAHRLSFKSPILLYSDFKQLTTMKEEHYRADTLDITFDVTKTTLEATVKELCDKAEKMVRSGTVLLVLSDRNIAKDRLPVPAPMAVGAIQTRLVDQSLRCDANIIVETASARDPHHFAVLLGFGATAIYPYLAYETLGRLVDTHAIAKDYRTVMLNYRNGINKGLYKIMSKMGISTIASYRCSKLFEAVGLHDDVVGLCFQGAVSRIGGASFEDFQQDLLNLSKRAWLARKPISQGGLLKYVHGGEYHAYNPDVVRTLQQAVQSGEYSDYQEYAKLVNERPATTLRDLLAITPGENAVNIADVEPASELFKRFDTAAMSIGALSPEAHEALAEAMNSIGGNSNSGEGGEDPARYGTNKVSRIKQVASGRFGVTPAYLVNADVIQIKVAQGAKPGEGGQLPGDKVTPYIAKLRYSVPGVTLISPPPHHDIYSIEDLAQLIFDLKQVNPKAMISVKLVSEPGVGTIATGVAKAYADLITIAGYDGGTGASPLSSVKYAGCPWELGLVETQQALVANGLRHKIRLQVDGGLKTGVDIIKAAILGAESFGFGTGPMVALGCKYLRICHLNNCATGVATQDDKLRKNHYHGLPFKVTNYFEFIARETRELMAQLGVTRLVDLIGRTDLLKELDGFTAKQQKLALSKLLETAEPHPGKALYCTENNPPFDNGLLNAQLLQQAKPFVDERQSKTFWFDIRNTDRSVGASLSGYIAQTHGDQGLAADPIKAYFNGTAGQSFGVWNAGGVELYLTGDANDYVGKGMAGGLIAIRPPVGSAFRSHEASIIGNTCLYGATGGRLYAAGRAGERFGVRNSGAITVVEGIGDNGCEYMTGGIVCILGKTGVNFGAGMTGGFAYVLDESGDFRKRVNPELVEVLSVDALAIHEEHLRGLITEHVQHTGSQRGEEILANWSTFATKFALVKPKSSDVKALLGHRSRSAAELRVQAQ
# UniProt P09551: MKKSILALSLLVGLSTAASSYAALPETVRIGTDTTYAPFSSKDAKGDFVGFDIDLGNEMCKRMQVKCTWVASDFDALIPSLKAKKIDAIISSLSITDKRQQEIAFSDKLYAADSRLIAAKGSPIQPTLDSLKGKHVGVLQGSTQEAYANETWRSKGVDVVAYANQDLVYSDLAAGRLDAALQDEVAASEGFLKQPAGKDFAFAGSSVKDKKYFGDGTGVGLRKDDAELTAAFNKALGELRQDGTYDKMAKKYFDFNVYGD
# UniProt P06968, whole entry, looked up: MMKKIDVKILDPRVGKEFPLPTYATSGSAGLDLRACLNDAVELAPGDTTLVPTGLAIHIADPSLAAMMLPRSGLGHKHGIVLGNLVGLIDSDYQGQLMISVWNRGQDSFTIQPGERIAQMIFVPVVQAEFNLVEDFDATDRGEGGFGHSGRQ
# UniProt P08245: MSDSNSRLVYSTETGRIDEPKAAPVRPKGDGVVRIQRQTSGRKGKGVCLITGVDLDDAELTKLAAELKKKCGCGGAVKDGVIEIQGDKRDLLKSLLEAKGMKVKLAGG
# UniProt P09184: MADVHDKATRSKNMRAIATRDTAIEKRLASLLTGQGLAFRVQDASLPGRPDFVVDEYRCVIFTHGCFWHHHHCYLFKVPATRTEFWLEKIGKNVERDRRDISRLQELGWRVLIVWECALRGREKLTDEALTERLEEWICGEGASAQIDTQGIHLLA
# UniProt P09549: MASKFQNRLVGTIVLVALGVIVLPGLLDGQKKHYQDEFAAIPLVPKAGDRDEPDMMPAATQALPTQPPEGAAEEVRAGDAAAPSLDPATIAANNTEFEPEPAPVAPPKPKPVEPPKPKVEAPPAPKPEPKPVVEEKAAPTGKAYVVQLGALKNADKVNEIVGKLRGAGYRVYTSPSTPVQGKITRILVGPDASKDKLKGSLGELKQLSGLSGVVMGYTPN
# UniProt P07330: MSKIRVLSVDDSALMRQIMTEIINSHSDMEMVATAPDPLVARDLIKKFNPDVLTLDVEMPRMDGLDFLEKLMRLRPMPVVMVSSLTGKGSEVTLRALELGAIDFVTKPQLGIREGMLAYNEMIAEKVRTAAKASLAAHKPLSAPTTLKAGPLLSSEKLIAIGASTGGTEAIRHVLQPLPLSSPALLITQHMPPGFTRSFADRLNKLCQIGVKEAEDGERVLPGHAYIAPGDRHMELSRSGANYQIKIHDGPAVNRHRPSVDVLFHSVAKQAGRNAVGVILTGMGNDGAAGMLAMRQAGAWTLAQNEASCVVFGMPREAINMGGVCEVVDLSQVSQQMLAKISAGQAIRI
# UniProt P07021: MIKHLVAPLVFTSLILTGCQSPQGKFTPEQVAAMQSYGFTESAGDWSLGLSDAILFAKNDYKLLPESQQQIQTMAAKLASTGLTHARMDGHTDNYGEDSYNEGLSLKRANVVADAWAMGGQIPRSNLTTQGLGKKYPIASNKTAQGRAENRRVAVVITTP
# UniProt P09162: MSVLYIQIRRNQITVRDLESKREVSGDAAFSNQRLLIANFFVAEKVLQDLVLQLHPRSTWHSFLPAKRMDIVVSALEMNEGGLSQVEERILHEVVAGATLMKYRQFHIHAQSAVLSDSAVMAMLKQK
# UniProt P08331: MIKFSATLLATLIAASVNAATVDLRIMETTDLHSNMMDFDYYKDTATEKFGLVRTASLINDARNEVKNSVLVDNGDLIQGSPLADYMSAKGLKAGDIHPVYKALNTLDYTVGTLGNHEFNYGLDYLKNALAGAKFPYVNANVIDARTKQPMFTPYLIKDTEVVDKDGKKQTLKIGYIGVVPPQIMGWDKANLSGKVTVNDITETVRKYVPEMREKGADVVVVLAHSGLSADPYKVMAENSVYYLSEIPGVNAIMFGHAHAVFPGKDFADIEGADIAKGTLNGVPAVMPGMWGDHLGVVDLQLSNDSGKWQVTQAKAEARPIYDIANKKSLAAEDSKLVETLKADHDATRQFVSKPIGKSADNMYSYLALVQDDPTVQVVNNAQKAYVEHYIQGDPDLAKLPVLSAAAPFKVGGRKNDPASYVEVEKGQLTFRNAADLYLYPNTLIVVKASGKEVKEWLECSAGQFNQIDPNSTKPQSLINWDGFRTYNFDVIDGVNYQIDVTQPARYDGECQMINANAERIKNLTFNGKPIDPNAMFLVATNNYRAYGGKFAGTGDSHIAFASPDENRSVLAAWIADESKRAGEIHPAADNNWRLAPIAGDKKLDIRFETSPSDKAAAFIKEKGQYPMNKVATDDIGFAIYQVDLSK
# UniProt P06965: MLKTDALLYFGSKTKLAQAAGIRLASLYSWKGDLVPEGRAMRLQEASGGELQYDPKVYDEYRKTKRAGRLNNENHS
# UniProt P09154: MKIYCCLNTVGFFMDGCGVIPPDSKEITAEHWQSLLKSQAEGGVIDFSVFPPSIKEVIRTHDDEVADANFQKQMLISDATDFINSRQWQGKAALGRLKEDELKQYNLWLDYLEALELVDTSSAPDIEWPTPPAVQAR
# UniProt P06864: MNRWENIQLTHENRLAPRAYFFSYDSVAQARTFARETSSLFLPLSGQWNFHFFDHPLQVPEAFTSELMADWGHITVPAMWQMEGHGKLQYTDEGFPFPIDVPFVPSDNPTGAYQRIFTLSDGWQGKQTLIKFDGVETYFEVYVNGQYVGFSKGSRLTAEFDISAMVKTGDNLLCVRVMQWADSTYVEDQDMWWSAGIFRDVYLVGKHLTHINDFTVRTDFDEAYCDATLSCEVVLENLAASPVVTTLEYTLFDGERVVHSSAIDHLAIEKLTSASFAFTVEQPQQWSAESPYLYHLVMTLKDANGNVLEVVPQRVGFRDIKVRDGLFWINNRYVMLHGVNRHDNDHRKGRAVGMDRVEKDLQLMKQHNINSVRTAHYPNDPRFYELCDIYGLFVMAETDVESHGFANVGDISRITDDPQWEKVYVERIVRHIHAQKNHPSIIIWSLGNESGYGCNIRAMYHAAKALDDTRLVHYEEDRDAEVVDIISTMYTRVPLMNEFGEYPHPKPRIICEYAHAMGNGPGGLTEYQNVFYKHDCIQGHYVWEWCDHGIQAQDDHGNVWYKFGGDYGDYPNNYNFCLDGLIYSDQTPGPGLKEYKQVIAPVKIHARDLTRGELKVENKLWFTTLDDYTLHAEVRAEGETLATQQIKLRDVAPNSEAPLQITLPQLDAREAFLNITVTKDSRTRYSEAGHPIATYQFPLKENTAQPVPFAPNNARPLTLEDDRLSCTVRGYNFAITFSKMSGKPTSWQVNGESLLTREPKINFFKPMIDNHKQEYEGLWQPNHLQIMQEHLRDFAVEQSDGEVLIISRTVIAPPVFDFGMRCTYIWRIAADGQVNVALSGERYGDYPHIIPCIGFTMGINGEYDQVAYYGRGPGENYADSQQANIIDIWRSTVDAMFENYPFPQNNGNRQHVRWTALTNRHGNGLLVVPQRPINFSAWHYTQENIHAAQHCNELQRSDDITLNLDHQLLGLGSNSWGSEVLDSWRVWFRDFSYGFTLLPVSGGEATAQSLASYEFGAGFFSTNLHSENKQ
# This is a selection; strong and weak results do not stand in their true shares. Most values lie at the level of the controls, where differences are scatter.
# Compound: Nc1ncnc2c1ncn2[C@@H]1O[C@H](COP(=O)(O)OP(=O)(O)OP(=O)(O)O)[C@@H](O)[C@H]1O [adenosine 5'-triphosphate]
# Test: log2 fold change of tryptic peptide abundance, ligand vs vehicle (limited proteolysis) (log2 ratio); higher = more trypsin-susceptible (destabilized)
# Conditions: ligand concentration: 5 mM; sample: E. coli desalted lysate; replicate design: treated before aliquoting
# Protocol: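 HT-PELSA: desalted E. coli K-12 BW25113 lysate (with 12 mM MgCl2) incubated with 5 mM ATP (pH 7) or water for 30 min at 25 C, then a 4 min trypsin pulse at 22 C. Peptides were quantified by DIA-MS (4 replicates). Value is the peptide log2 fold change (treated/control); negative = stabilized. Scale: negative = ligand-stabilized region.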
# 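Note: lysate desalted by size exclusion to strip endogenous ATP, peptide intensities built from DIA-NN precursor signals, and peptides missing any value discarded before comparison.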
row,Target,log2 fold change
1,"UniProt P07017 (peptide sequence: EGSDAIYAGTR, peptide start residue: 270)",0.12
2,"UniProt P08395 (peptide sequence: FITLVADAR, peptide start residue: 488)",0.232
3,"UniProt P07026 (peptide sequence: ALGFLSFSR, peptide start residue: 129)",0.311
4,"UniProt P08506 (peptide sequence: KLGLTNTTFQTVHGLDAPGQFSTAR, peptide start residue: 161)",0.608
5,"UniProt P07117 (peptide sequence: FAEADAHYHSAPPSR, peptide start residue: 484)",0.416
6,"UniProt P09127 (peptide sequence: HQEETYR, peptide start residue: 297)",1.08
7,"UniProt P09163 (peptide sequence: SRHEEGEELVAIWCR, peptide start residue: 8)",0.286
8,"UniProt P08369 (peptide sequence: EVTTDDELR, peptide start residue: 439)",0.139
9,"UniProt P09099 (peptide sequence: TGGDVGPALGAAR, peptide start residue: 418)",0.457
10,"UniProt P07003 (peptide sequence: IKAPIVHALR, peptide start residue: 226)",0.864
11,"UniProt P09831 (peptide sequence: VAQGAKPGEGGQLPGDKVTPYIAK, peptide start residue: 932)",-0.61
12,"UniProt P06721 (peptide sequence: ASSLVFDSVEAK, peptide start residue: 31)",-0.269
13,"UniProt P09155 (peptide sequence: ISAELLASR, peptide start residue: 323)",0.744
14,"UniProt P09551 (peptide sequence: YFGDGTGVGLR, peptide start residue: 212)",-0.35
15,"UniProt P09835 (peptide sequence: VSVSLPQRYV, peptide start residue: 491)",0.321
16,"UniProt P06968 (peptide sequence: GEGGFGHSGRQ, peptide start residue: 142)",0.0774
17,"UniProt P06715 (peptide sequence: KVMWHAAQIR, peptide start residue: 51)",0.614
18,"UniProt P08190 (peptide sequence: TVQVDDSSQSAHFPLQVR, peptide start residue: 126)",0.232
19,"UniProt P07363 (peptide sequence: SNESTSIR, peptide start residue: 258)",0.82
20,"UniProt P08245 (peptide sequence: AAPVRPKGDGVVR, peptide start residue: 22)",0.54

row,Target,log2 fold change
1,"UniProt P06974 (peptide sequence: LNPGDVLPIEKPDR, peptide start residue: 278)",-0.754
2,"UniProt P09184 (peptide sequence: TEFWLEK, peptide start residue: 83)",-0.226
3,"UniProt P0A703 (peptide sequence: LRVDTGDSLIVK, peptide start residue: 97)",0.614
4,"UniProt P09549 (peptide sequence: ILVGPDASKDKLK, peptide start residue: 186)",-0.482
5,"UniProt P07330 (peptide sequence: ASLAAHKPLSAPTTLK, peptide start residue: 133)",-0.33
6,"UniProt P07024 (peptide sequence: MVNYQLIPVNLKK, peptide start residue: 309)",-0.272
7,"UniProt P08202 (peptide sequence: PILDVQHLGIGGK, peptide start residue: 364)",0.503
8,"UniProt P07021 (peptide sequence: SNLTTQGLGKK, peptide start residue: 125)",-0.434
9,"UniProt P09126 (peptide sequence: CAIHYDGAEEAMR, peptide start residue: 161)",-0.708
10,"UniProt P09162 (peptide sequence: EVSGDAAFSNQR, peptide start residue: 23)",-0.324
11,"UniProt P09153 (peptide sequence: AILNSDLIATK, peptide start residue: 4)",-0.0581
12,"UniProt P06996 (peptide sequence: DGNKLDLYGK, peptide start residue: 28)",-0.162
13,"UniProt P07658 (peptide sequence: IADMHIALK, peptide start residue: 211)",-0.55
14,"UniProt P08368 (peptide sequence: KFSTPSPVIR, peptide start residue: 124)",0.702
15,"UniProt P08331 (peptide sequence: VTVNDITETVR, peptide start residue: 196)",0.37
16,"UniProt P06965 (peptide sequence: TDALLYFGSK, peptide start residue: 4)",-0.545
17,"UniProt P09154 (peptide sequence: EITAEHWQSLLK, peptide start residue: 26)",-0.162
18,"UniProt P06846 (peptide sequence: VLNDDPTLNVKEETK, peptide start residue: 21)",-0.0727
19,"UniProt P09394 (peptide sequence: GASGYLPEHTLPAK, peptide start residue: 38)",0.419
20,"UniProt P06864 (peptide sequence: VPLMNEFGEYPHPKPR, peptide start residue: 493)",0.794

# A different layout for some results above.
row	Target	log2 fold change
19	UniProt P09394 (peptide sequence: GASGYLPEHTLPAK, peptide start residue: 38)	0.419
20	UniProt P06864 (peptide sequence: VPLMNEFGEYPHPKPR, peptide start residue: 493)	0.794
